This is an account of results in ChEMBL document CHEMBL3351789, “Triazolopyridines as selective JAK1 inhibitors: from hit identification to GLPG0634” (J Med Chem, 2014).

The structures appear in SMILES notation.

The data set can be described thus: Kinetic solubility of the compound at pH 7.4. The settings on record: buffer.

`O=C(Nc1nc2cccc(-c3ccc(NS(=O)(=O)C4CC4)cc3)n2n1)C1CC1`: the solubility (kinetic) (usually solubility judged after dilution from a stock solution rather than from solid) is > 80 µg/mL.
